Experimental data published in paper PMC9879991, “Biomolecular condensates formed by designer minimalistic peptides” (Nature Communications, 2023).
No end group written: not given here.

Tests used:
[1] = NaCl-induced 13C chemical shift changes of WGR-1 at 5 and 20 mM
[2] = Urea analysis: 13C alpha chemical shift changes upon addition of 8 M urea; details: denaturating effects induced by 8 M urea
[3] = 20mM peptide, first average column (high)
[4] = 20mM peptide, second average column (low)
[5] = 20 mM, with and without 100mM NaCl, pH 8, 300 K

Sequence: WGRGRGRGWPGVGY [WGR-1]
- Average Δδ* [Hz], aa R ([1]; 20mM peptide, average over all R positions): 5.64 Hz
- Average Δδ* [Hz], aa V ([1]; 20mM peptide, average over all V positions): 5.66 Hz
- Average Δδ* [Hz], aa Y ([1]; 20mM peptide, average over all Y positions): 5.15 Hz
- Average Δδ* [Hz], aa W1 [1, 3]: 6.85 Hz
- Average Δδ* [Hz], aa W9 [1, 3]: 6.12 Hz
- Average Δδ* [Hz], aa W1 [1, 4]: 6.49 Hz
- Average Δδ* [Hz], aa W9 [1, 4]: 5.86 Hz
- Δδ* 13Cα P (δ 63.22 ppm) [1, 5]: 14.01 Hz
- Δδ* 13Cα Pm (δ 63.54 ppm) [1, 5]: 6.3 Hz
- Δδ* 13Cα R3,5 (δ 56.3 ppm) [1, 5]: 7.61 Hz
- Δδ* 13Cα R7 (δ 56.38 ppm) [1, 5]: 4.08 Hz
- Δδ* 13Cα R7m (δ 56.59 ppm) [1, 5]: 3.9 Hz
- Δδ* 13Cα V (δ 62.39 ppm) [1, 5]: 5.96 Hz
- Δδ* 13Cα Vm (δ 62.17 ppm) [1, 5]: 5.62 Hz
- Δδ* 13Cα Y (δ 59.11 ppm) [1, 5]: 3.26 Hz
- Δδ* 13Cβ P (δ 32.77 ppm) [1, 5]: 4.16 Hz
- Δδ* 13Cβ R (δ 30.45 ppm) [1, 5]: 6.96 Hz
- Δδ* 13Cβ R (δ 30.51 ppm) [1, 5]: 5.28 Hz
- Δδ* 13Cβ R (δ 30.65 ppm) [1, 5]: 2.79 Hz
- Δδ* 13Cβ R (δ 30.69 ppm) [1, 5]: 3.02 Hz
- Δδ* 13Cβ V (δ 32.84 ppm) [1, 5]: 3.67 Hz
- Δδ* 13Cβ Vm (δ 33.02 ppm) [1, 5]: 8.52 Hz
- Δδ* 13Cβ W1 (δ 32.03 ppm) [1, 5]: -18.16 Hz
- Δδ* 13Cβ W9 (δ 31.85 ppm) [1, 5]: 5.7 Hz
- Δδ* 13Cβ W9m (δ 29.06 ppm) [1, 5]: 5.62 Hz
- Δδ* 13Cβ Y (δ 39.36 ppm) [1, 5]: 4.3 Hz
- Δδ* 13Cβ Ym (δ 39.38 ppm) [1, 5]: 4.16 Hz
- Δδ* 13Cγ P (δ 27.2 ppm) [1, 5]: 4.88 Hz
- Δδ* 13Cγ Pm (δ 24.15 ppm) [1, 5]: 6.35 Hz
- Δδ* 13Cγ R (δ 26.78 ppm) [1, 5]: 7.01 Hz
- Δδ* 13Cγ R (δ 26.86 ppm) [1, 5]: 6.4 Hz
- Δδ* 13Cγ R (δ 26.94 ppm) [1, 5]: 6.95 Hz
- Δδ* 13Cγ R (δ 27.02 ppm) [1, 5]: 6.44 Hz
- Δδ* 13Cγ V (δ 20.35 ppm) [1, 5]: 5.27 Hz
- Δδ* 13Cγ V (δ 21.07 ppm) [1, 5]: 5.92 Hz
- Δδ* 13Cγ Vm (δ 20.01 ppm) [1, 5]: 5.68 Hz
- Δδ* 13Cγ Vm (δ 21.04 ppm) [1, 5]: 5.65 Hz
- Δδ* 13Cγ W9 (δ 111.35 ppm) [1, 5]: 6.6 Hz
- Δδ* 13Cγ W9m (δ 110.77 ppm) [1, 5]: 7.14 Hz
- Δδ* 13Cγ Y (δ 131.83 ppm) [1, 5]: 8.01 Hz
- Δδ* 13Cγ Ym (δ 131.82 ppm) [1, 5]: 8.52 Hz
- Δδ* 13Cδ1 W1 (δ 127.53 ppm) [1, 5]: 12.19 Hz
- Δδ* 13Cδ1 W9 (δ 127.28 ppm) [1, 5]: 5.75 Hz
- Δδ* 13Cδ1 W9m (δ 127.44 ppm) [1, 5]: 5.68 Hz
- Δδ* 13Cδ2 W1 (δ 129.58 ppm) [1, 5]: 2.91 Hz
- Δδ* 13Cδ2 W9 (δ 129.49 ppm) [1, 5]: 5.33 Hz
- Δδ* 13Cδ2 W9m (δ 129.36 ppm) [1, 5]: 5.8 Hz
- Δδ* 13Cδ P (δ 50.74 ppm) [1, 5]: 6.64 Hz
- Δδ* 13Cδ Pm (δ 49.84 ppm) [1, 5]: 5.09 Hz
- Δδ* 13Cδ R (δ 43.08 ppm) [1, 5]: 7.26 Hz
- Δδ* 13Cδ R (δ 43.14 ppm) [1, 5]: 7.32 Hz
- Δδ* 13Cδ R (δ 43.23 ppm) [1, 5]: 7.61 Hz
- Δδ* 13Cδ R (δ 43.27 ppm) [1, 5]: 7.9 Hz
- Δδ* 13Cδ R (δ 43.29 ppm) [1, 5]: 7.43 Hz
- Δδ* 13Cδ Y (δ 133.26 ppm) [1, 5]: 4.89 Hz
- Δδ* 13Cε2 W1 (δ 138.94 ppm) [1, 5]: 5.13 Hz
- Δδ* 13Cε2 W9 (δ 138.75 ppm) [1, 5]: 5.09 Hz
- Δδ* 13Cε2 W9m (δ 138.88 ppm) [1, 5]: 4.89 Hz
- Δδ* 13Cε W1 (δ 121 ppm) [1, 5]: 4.72 Hz
- Δδ* 13Cε W9 (δ 120.8 ppm) [1, 5]: 7.02 Hz
- Δδ* 13Cε W9m (δ 120.71 ppm) [1, 5]: 6.22 Hz
- Δδ* 13Cε Y (δ 117.99 ppm) [1, 5]: 6.47 Hz
- Δδ* 13Cε Ym (δ 118.15 ppm) [1, 5]: 4.69 Hz
- Δδ* 13Cζ2 W1 (δ 114.61 ppm) [1, 5]: 6.97 Hz
- Δδ* 13Cζ2 W9 (δ 114.66 ppm) [1, 5]: 5.73 Hz
- Δδ* 13Cζ3 W (δ 122 ppm) [1, 5]: 8.47 Hz
- Δδ* 13Cζ3 W (δ 122.16 ppm) [1, 5]: 5.9 Hz
- Δδ* 13Cζ Y (δ 156.97 ppm) [1, 5]: 2.52 Hz
- Δδ* 13Cζ Ym (δ 156.99 ppm) [1, 5]: 2.29 Hz
- Δδ* 13Cη2 W1 (δ 124.62 ppm) [1, 5]: 7.59 Hz
- Δδ* 13Cη2 W9 (δ 124.69 ppm) [1, 5]: 6.07 Hz
- Δδ* 13Cη2 W9m (δ 124.82 ppm) [1, 5]: 5.16 Hz
- Δδ* C' Gm (δ 172.8 ppm) [1, 5]: 6.98 Hz
- Δδ* C' Gm (δ 172.83 ppm) [1, 5]: 6.68 Hz
- Δδ* C' Gm (δ 172.997 ppm) [1, 5]: 4.41 Hz
- Δδ* C' P10 (δ 177.11 ppm) [1, 5]: 7.28 Hz
- Δδ* C' R (δ 176.71 ppm) [1, 5]: 5.32 Hz
- Δδ* C' R (δ 176.73 ppm) [1, 5]: 5.57 Hz
- Δδ* C' R (δ 176.78 ppm) [1, 5]: 3.79 Hz
- Δδ* C' R (δ 176.88 ppm) [1, 5]: 4.78 Hz
- Δδ* C' V (δ 176.4 ppm) [1, 5]: 5.83 Hz
- Δδ* C' Vm (δ 176.31 ppm) [1, 5]: 6.5 Hz
- Δδ* C' W9 (δ 174.7 ppm) [1, 5]: 7.02 Hz
- Δδ* C' W9m (δ 175.25 ppm) [1, 5]: 2.78 Hz
- Δδ* C' Y14 (δ 180.27 ppm) [1, 5]: 7.09 Hz
- Δδ* C=NH R3+5 (δ 159.46 ppm) [1, 5]: 4.96 Hz
- Δδ* C=NH R7 (δ 159.34 ppm) [1, 5]: 4.92 Hz
- Δδ* C=NH R7m (δ 159.26 ppm) [1, 5]: 5.1 Hz
- Pro10-Cα chemical shift difference between 0 and 8 M urea [2]: 0.05 ppm
- Trp1-Cα chemical shift difference between 0 and 8 M urea [2]: 0.12 ppm
- Trp9-Cα chemical shift difference between 0 and 8 M urea [2]: 0.15 ppm
- Tyr/Phe14- Cα chemical shift difference between 0 and 8 M urea [2]: 0.37 ppm
- Val12-Cα (maj.) chemical shift difference between 0 and 8 M urea ([2]; major form): 0.02 ppm
- Val12-Cα (min.) chemical shift difference between 0 and 8 M urea ([2]; minor form): 0.08 ppm
